Each number is a percent effect as filed. The record does not define 0% and 100%; most values in the screen are far below 50% and negative numbers occur (in some assays of this library far below -100). This is an unselected part of the compounds tested. Two or more numbers in one place are separate tests of the same structure; such repeats can differ widely.

The chains behind the UniProt entries cited, without tags or fusion partners. Residues count along the entry.
UniProt Q4DA54, 1-478: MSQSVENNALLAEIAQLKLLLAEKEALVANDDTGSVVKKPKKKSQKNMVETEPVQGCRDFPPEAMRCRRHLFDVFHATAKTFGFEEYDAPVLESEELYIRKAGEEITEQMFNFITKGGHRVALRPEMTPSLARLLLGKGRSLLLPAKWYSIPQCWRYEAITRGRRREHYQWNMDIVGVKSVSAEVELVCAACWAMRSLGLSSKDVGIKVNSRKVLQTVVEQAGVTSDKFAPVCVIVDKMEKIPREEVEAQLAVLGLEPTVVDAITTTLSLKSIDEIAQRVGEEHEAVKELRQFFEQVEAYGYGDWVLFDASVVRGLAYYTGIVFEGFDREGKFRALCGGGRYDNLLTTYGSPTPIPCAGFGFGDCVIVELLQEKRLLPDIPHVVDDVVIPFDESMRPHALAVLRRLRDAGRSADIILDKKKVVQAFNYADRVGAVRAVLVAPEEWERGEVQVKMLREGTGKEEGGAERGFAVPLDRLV
UniProt P9WNZ1, whole entry: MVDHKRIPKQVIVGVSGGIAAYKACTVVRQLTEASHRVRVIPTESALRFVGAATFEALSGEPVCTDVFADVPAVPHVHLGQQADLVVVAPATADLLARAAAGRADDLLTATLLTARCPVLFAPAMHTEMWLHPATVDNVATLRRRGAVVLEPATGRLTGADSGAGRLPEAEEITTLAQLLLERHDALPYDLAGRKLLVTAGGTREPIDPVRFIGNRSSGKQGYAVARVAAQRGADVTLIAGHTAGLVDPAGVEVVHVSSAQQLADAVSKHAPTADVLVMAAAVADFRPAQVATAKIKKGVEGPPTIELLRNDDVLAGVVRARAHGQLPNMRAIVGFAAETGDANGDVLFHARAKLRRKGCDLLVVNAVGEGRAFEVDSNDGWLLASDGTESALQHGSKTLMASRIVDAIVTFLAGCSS
UniProt A4I591, 1-473: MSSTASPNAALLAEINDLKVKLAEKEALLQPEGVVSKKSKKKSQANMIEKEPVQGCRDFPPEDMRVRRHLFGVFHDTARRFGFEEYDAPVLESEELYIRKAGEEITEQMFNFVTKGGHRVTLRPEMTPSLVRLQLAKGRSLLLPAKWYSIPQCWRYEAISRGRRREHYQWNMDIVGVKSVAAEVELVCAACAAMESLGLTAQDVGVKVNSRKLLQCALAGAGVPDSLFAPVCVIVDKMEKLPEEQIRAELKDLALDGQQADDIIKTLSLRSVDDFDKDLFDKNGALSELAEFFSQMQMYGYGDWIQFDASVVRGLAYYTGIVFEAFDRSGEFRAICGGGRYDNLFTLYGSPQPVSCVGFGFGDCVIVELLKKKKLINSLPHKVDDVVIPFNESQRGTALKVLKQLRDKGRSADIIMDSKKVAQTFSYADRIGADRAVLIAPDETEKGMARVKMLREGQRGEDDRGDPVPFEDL

TcHisRS: 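Enzyme assay of histidyl-tRNA synthetase; the read-out is not stated. Target: Histidine-tRNA ligase, Trypanosoma cruzi CL Brener (UniProt Q4DA54). Compounds at 30 µM. Higher reads as stronger inhibition (inferred: compounds with an IC50 in retests scored well above the rest). Size under these conditions: about 69,000 compounds, about 31 of them at 50% or above in at least one test.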
CoaBC: 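Enzyme assay of CoaBC with a phosphate dye (Biomol Green) read at 650 nm. Target: Coenzyme A biosynthesis protein CoaBC, Mycobacterium tuberculosis (UniProt P9WNZ1). Compounds at 30 µM. Direction is inferred from only a few compounds that gave an IC50; most scored high, so higher reads as stronger inhibition. Most strong results did not repeat in a second test. About 67,000 compounds were tested under these conditions; 0.06% (about 40) showed 50% or more at least once.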
LiHisRS: 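Enzyme assay of histidyl-tRNA synthetase; the read-out is not stated. Target: Histidine-tRNA ligase, Leishmania infantum (UniProt A4I591). Compounds at 30 µM. The record gives no direction; compounds that gave an IC50 in retests scored well above the rest, so higher reads as stronger inhibition. The assay is labelled LdHisRS but filed under L. infantum. About 69,000 compounds were tested under these conditions; 0.6% (about 410) showed 50% or more at least once.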

{"structure": "NC(=O)C1(CNC(=O)CCc2ccc(Cl)s2)CCOCC1", "TcHisRS": 3.333, "CoaBC": 6.615, "LiHisRS": 13.51}
{"structure": "CCNC(=O)Nc1c(C)cnn1Cc1cc(F)ccc1F", "TcHisRS": 12.64, "CoaBC": 2.091, "LiHisRS": 19.35}
{"structure": "CCCNC(=O)c1cc(C(C)C)nc(N2CCCCC2)n1", "TcHisRS": 0, "CoaBC": -2.309, "LiHisRS": 13.79}
{"structure": "CC(C)CC1SCC(=O)Nc2c1cnn2-c1ccccc1F", "stereo": "centres unmarked", "TcHisRS": 5.263, "CoaBC": 2.273, "LiHisRS": 13.16}
{"structure": "CCOCC1CN(C(=O)c2cscn2)Cc2cnn(CC3CC3)c21", "stereo": "centres unmarked", "TcHisRS": 7.563, "CoaBC": -8.316, "LiHisRS": -6.422}
{"structure": "COC(=O)NCCC(=O)NC(C)Cc1ccccc1Br", "stereo": "centres unmarked", "TcHisRS": 5.641, "CoaBC": -0.7453, "LiHisRS": 11.11}
{"structure": "COCC(=O)N1CCN(C)C(=O)C(Cc2ccc(-c3cccs3)cc2)C1", "stereo": "centres unmarked", "TcHisRS": 5.639, "CoaBC": 2.331, "LiHisRS": 11.35}
{"structure": "COCC(C)NC(=O)c1sccc1-n1cnnn1", "stereo": "centres unmarked", "TcHisRS": 0, "CoaBC": 8.051, "LiHisRS": 10}
{"structure": "Cc1cnn(CCNCC(O)COc2cccc(C(F)(F)F)c2)c1", "stereo": "centres unmarked", "TcHisRS": 10, "CoaBC": -27.73, "LiHisRS": 9.402}
{"structure": "CCC(=O)N1CCC2(C=C(C(=O)N(C)C)c3ccccc32)CC1", "TcHisRS": 4.42, "CoaBC": -3.465, "LiHisRS": -0.9009}
{"structure": "CN1CCN(C(=O)C2CN(Cc3cc4ccccc4o3)CCN2)CC1", "stereo": "centres unmarked", "TcHisRS": -1.064, "CoaBC": -6.352, "LiHisRS": 4.286}
{"structure": "Cc1ncc(CC(=O)N2CCCC(COc3ccccc3F)C2)c(=O)[nH]1", "stereo": "centres unmarked", "TcHisRS": 4.372, "CoaBC": 1.961, "LiHisRS": 10.53}
{"structure": "Cc1ccc(CN2CCC3(CC2)C(=O)Nc2ccccc23)s1", "TcHisRS": 6.796, "CoaBC": "2.577 and 28.19", "LiHisRS": 9.615}
{"structure": "CC(C)N(C)C(=O)c1coc(CN2CCN(c3ccccc3F)CC2)n1", "TcHisRS": 4.598, "CoaBC": -0.369, "LiHisRS": 8.065}
{"structure": "CC(C)(C)n1ncc2c1NC(=O)CC2c1c(F)cccc1F", "stereo": "centres unmarked", "TcHisRS": 1.212, "CoaBC": 2.554, "LiHisRS": 25.97}
{"structure": "CN(C)c1nc(CNC(=O)Nc2cccc([S+](C)[O-])c2)cs1", "stereo": "centres unmarked", "TcHisRS": 10.05, "CoaBC": 6.149, "LiHisRS": 27.06}
{"structure": "CC(=O)N1CCN(CCNC(=O)NC(C)Cn2ccnc2)CC1", "stereo": "centres unmarked", "TcHisRS": -1.657, "CoaBC": -1.656, "LiHisRS": 4.145}
{"structure": "COCCN1C[C@H]2CN(C(=O)NC(C)C)CCN2C1=O", "TcHisRS": 12.87, "CoaBC": 4.289, "LiHisRS": 22.22}

2 of the entries, repeated:

structure	TcHisRS	CoaBC	LiHisRS
Cc1cnn(CCNCC(O)COc2cccc(C(F)(F)F)c2)c1 (centres unmarked)	10	-27.73	9.402
COC(=O)NCCC(=O)NC(C)Cc1ccccc1Br (centres unmarked)	5.641	-0.7453	11.11

From ChEMBL document CHEMBL3988442, “University of Dundee, Small-Polar-MMV Screening Library” (2021).